Reference: the supplement of paper PMC10849652
The list shows a part of the results.

Protein sequences, listed by entry. Tags and fused reporters are not part of them. Lines headed by an entry give the natural chain unless they say otherwise; changes in a name come on top.
UniProt O60784, whole entry, looked up: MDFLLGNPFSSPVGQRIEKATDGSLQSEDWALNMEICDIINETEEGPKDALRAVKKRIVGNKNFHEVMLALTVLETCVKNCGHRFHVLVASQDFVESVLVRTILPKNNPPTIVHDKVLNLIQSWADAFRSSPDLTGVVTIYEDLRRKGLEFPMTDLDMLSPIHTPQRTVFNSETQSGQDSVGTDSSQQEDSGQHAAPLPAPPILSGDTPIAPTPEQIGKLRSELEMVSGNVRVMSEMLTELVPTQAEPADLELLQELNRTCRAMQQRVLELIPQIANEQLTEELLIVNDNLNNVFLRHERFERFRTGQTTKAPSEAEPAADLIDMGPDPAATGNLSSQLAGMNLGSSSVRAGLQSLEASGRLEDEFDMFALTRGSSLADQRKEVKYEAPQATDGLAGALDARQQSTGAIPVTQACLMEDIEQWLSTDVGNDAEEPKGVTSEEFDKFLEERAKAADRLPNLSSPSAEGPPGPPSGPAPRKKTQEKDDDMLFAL
UniProt Q9NV96: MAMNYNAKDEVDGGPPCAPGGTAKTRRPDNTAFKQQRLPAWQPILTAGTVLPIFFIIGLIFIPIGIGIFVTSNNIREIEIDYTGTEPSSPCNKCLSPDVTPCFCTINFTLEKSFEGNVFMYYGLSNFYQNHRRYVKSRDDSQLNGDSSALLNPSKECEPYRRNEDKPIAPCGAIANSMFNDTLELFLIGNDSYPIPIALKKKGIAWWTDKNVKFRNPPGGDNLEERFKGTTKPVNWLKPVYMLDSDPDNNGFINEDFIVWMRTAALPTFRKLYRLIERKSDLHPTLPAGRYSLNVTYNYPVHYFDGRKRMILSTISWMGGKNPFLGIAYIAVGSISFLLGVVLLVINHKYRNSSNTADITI
UniProt P28908: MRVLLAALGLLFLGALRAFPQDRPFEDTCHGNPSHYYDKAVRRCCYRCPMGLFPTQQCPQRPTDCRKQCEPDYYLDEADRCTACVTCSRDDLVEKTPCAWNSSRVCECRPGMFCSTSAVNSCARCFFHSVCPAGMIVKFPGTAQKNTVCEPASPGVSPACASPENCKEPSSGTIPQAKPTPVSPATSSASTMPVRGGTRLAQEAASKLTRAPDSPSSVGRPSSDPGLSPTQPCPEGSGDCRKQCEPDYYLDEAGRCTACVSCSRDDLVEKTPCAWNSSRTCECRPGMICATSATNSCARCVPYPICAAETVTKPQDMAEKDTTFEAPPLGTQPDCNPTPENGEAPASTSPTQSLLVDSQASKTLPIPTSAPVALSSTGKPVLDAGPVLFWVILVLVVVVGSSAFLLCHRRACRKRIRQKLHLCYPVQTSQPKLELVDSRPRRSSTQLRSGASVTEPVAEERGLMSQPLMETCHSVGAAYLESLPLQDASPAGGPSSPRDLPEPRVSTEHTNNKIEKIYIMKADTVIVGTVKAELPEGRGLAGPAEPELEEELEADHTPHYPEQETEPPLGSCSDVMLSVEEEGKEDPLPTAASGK
UniProt Q9NVH6: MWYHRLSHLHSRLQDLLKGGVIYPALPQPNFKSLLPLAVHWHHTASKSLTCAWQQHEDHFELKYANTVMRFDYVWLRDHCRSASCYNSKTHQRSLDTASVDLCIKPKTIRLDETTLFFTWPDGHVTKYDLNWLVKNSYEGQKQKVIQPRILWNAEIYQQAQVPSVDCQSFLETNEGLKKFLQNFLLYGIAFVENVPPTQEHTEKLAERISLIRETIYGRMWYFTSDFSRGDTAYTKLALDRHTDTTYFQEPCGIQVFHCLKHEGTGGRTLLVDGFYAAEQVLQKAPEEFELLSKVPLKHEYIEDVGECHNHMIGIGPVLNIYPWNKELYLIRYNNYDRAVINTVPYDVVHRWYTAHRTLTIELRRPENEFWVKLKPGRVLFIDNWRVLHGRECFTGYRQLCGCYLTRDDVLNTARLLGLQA
UniProt Q8N2U0: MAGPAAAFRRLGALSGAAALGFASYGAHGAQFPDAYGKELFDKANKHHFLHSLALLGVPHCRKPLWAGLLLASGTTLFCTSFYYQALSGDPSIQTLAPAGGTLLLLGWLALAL
UniProt Q86XT9, whole entry, looked up: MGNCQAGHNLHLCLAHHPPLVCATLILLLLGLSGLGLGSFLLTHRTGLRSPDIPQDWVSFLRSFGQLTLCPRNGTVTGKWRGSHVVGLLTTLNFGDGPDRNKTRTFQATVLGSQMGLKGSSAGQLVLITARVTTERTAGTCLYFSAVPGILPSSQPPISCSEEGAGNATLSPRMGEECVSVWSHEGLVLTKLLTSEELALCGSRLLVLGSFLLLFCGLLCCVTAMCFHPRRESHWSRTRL
UniProt Q9H3S4: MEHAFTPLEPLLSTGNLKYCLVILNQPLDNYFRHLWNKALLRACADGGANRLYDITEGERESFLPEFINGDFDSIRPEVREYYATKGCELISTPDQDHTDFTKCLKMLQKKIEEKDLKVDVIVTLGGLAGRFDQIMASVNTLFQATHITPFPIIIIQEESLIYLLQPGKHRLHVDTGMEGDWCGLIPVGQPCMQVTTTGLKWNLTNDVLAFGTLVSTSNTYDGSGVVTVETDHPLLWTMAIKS
UniProt Q8NBN3: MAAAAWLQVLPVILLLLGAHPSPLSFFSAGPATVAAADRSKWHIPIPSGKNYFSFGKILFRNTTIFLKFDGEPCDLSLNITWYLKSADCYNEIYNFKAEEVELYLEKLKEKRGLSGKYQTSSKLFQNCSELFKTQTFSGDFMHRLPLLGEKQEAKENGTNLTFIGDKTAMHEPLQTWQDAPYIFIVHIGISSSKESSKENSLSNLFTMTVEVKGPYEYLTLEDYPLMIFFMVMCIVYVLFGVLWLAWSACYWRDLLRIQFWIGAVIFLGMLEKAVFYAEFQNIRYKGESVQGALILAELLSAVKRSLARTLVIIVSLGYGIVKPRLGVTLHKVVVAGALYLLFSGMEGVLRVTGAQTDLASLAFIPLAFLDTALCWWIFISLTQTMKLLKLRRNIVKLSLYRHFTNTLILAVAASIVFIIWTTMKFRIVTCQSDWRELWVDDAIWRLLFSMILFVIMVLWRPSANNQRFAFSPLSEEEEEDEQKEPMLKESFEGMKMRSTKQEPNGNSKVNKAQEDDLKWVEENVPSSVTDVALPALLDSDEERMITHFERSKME
UniProt Q8N9V7: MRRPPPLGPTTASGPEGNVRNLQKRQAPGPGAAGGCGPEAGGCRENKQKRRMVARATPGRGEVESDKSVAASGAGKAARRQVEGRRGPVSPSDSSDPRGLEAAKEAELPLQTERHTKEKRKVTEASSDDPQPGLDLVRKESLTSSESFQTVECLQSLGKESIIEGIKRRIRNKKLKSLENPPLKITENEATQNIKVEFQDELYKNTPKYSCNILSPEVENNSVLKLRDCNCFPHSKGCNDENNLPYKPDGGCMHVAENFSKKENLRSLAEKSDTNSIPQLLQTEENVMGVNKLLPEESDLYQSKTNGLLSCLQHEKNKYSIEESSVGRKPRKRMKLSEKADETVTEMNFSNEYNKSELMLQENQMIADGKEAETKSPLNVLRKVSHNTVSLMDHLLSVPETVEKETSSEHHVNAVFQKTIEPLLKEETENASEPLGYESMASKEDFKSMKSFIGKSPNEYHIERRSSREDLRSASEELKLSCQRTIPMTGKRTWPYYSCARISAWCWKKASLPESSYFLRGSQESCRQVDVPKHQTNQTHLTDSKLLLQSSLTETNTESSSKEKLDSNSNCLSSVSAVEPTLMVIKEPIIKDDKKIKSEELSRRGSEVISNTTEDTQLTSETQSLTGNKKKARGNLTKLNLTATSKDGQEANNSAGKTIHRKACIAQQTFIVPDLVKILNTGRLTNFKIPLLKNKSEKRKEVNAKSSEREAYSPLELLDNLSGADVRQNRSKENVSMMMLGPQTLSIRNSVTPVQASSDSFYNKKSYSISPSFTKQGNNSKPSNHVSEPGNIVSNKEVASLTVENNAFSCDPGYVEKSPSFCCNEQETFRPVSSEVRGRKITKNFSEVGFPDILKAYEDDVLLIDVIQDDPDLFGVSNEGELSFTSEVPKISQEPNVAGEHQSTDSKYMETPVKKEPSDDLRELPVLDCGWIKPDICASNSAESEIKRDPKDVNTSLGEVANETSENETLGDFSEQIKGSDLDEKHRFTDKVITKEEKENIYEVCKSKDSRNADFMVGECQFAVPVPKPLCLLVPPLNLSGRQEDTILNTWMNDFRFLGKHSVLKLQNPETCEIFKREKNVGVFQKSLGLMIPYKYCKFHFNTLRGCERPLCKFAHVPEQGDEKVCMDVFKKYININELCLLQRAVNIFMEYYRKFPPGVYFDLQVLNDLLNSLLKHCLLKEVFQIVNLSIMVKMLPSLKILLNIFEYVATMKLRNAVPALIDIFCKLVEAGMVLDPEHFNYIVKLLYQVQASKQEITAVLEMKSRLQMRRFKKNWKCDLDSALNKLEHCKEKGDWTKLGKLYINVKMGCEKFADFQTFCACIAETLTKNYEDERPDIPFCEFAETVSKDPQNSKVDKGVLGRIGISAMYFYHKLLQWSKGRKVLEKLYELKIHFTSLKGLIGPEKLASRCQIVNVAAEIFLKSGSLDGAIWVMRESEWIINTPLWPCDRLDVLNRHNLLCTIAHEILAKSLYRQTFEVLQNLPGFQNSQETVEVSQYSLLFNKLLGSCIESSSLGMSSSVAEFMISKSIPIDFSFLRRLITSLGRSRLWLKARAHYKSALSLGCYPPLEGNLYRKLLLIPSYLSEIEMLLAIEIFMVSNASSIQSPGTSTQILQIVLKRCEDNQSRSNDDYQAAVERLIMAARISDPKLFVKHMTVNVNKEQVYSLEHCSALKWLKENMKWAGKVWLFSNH
UniProt Q96B49: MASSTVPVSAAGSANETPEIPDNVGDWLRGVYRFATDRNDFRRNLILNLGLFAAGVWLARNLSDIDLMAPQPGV
UniProt Q9HCN3: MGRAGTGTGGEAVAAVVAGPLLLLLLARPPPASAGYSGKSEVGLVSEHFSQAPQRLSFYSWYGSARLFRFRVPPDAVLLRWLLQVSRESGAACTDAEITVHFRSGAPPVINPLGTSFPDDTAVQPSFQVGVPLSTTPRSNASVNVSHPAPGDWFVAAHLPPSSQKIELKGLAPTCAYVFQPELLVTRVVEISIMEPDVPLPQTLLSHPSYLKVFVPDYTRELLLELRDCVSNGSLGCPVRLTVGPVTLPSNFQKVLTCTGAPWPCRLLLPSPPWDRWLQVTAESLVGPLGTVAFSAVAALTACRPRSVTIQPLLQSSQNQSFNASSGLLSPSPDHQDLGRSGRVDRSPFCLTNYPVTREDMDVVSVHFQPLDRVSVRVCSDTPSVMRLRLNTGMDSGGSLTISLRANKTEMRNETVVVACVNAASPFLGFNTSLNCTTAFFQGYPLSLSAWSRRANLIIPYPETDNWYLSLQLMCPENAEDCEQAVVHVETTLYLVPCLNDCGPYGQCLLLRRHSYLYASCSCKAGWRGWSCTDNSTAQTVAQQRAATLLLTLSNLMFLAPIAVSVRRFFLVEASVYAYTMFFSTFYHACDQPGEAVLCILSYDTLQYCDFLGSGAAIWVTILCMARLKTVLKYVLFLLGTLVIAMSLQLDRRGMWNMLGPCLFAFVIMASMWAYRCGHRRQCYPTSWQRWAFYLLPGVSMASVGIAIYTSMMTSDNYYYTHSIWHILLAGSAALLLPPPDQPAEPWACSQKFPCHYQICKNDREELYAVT
UniProt Q96Q45: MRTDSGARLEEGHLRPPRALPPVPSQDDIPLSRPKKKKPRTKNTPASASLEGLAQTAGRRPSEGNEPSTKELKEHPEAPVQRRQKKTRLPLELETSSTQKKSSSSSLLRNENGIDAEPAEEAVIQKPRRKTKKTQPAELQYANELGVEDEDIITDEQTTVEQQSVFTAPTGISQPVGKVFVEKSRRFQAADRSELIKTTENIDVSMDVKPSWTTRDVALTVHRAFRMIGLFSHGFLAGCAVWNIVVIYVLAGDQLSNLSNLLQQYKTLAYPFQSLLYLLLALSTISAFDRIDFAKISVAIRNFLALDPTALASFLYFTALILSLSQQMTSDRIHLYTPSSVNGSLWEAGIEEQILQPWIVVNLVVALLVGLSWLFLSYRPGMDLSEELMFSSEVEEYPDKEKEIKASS
UniProt Q9NWH2: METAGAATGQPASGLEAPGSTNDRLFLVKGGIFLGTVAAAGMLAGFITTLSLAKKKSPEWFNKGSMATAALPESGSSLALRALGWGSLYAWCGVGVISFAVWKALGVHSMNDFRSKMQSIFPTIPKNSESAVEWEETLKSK
UniProt Q6UW68: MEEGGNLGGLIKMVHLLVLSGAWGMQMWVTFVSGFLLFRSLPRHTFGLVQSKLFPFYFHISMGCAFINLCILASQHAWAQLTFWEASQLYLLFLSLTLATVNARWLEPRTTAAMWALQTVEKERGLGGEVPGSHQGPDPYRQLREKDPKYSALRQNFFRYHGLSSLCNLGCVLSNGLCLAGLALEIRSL

compound: NCC(=O)Nc1ccc(-n2nc(C(F)(F)F)cc2-c2ccc3c(ccc4ccccc43)c2)cc1; assay: log2 fold change, soluble protein after heating vs DMSO (PISA); higher = thermal stabilisation; K562 lysate, 10 uM; active = over 0.2 and 3.5 SD of the protein, either way, in both replicates (recomputed)
Summary of the method: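 The values are log-two fold changes in thermal stability compared with solvent controls and come from duplicates. They were obtained by TMTpro 16plex LC-MS/MS, with channel sums equalised, on the supernatant after 21,000xg for 90 min. That supernatant came from crude K562 extract at 1 mg/mL protein treated with 10 μM compound for 30 min, heated for 3 min across 48°C-58°C, pooled and brought to 0.5% NP-40 at 4°C.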

| Target | log2 fold change |
| --- | --- |
| TOM1 (UniProt O60784) | inactive: -0.001 |
| TMEM30A (UniProt Q9NV96) | inactive: 0.003 |
| TNFRSF8 (UniProt P28908) | inactive: 0.074 |
| TMLHE isoform 8 (UniProt Q9NVH6) | inactive: 0.018 |
| TMEM256 (UniProt Q8N2U0) | inactive: -0.177 |
| TMPO isoform 2 (UniProt P42167) | inactive: -0.066 |
| TMEM219 (UniProt Q86XT9) | inactive: 0.052 |
| TPK1 (UniProt Q9H3S4) | inactive: 0.09 |
| TMEM87A (UniProt Q8NBN3) | inactive: 0.001 |
| TOPAZ1 (UniProt Q8N9V7) | inactive: 0.036 |
| TOMM6 (UniProt Q96B49) | inactive: -0.171 |
| TMEM8A (UniProt Q9HCN3) | inactive: -0.069 |
| TMEM237 isoform 3 (UniProt Q96Q45) | inactive: 0.008 |
| TMEM242 (UniProt Q9NWH2) | inactive: 0.193 |
| TMEM205 (UniProt Q6UW68) | inactive: -0.102 |
| TOM1 isoform 2 (UniProt O60784) | inactive: 0.017 |

Rewritten in CSV form: part of the list above
Target,log2 fold change
TNFRSF8 (UniProt P28908),inactive: 0.074
TMEM8A (UniProt Q9HCN3),inactive: -0.069
